Patent US20250388666A1
These are yes or no findings as the source states them, for the method shown. Some results given as binding are weak or reduced against the parent protein; the word gives no strength.

Protein sequences, listed by entry. Tags and fused reporters are not part of them. Lines headed by an entry give the natural chain unless they say otherwise; changes in a name come on top. Residues count along the entry.
UniProt P13688: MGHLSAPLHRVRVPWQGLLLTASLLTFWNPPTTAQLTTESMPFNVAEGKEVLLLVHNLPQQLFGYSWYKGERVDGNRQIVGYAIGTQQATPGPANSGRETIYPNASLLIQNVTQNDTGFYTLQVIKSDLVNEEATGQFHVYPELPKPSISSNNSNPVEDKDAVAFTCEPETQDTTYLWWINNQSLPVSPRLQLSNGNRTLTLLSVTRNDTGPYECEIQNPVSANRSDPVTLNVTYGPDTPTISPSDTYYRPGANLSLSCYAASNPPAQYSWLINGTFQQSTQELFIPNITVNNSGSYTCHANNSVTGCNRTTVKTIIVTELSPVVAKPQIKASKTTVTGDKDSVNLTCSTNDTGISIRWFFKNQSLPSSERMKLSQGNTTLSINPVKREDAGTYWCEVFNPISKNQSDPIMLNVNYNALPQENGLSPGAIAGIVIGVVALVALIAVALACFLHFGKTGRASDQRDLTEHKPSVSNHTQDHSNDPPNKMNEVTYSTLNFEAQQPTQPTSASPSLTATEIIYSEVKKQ
UniProt P40198, residues 35-155: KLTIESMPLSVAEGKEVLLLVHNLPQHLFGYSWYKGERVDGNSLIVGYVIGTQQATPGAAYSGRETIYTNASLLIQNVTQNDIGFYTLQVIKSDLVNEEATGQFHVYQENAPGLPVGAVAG

B1: Parent VH/L1 (antibody, IgG4, V domains shown)
VH: EVQLLESGGGLVQPGGSLRLSCAASGFSFSDYYLYWVRQAPGKGLEWVATISVGGGQTSYADSVKGRFTISRDNSKNTLYLQMNSLRAEDTAMYYCTRGLYYGPAWFAYWGQGTLVTVSS
VL: DIVMTQSPDSLAVSLGERATINCKSSQSLLNSANQKNYLAWYQQKPGQPPKLLIYFASTRESGVPDRFSGSGSGTDFTLTISSLQAEDVAVYYCQSHYPFYYTFGGGTKVEIK
B2: He3/L20 (antibody, IgG4, V domains shown)
VH: EVQLLESGGGLVQPGGSLRLSCAASGFSFSDYYLYWVRQAPGKGLEWVATISVGGGQTSYADSVKGRFTISRDNSKNTLYLQMNSLRAEDTAMYYCTRALTYGPAWLAYWGQGTLVTVSS
VL: DIVMTQSPDSLAVSLGERATINCKSSQSLLNSANQKNYLAWYQQKPGQPPKLLIYFASTRESGVPDRFSGSGSGTDFTLTISSLQAEDVAVYYCQSHFPYPLTFGGGTKVEIK
B3: He17/L1 (antibody, IgG4, V domains shown)
VH: EVQLLESGGGLVQPGGSLRLSCAASGFSFSDYYLYWVRQAPGKGLEWVATISVGGGQTSYADSVKGRFTISRDNSKNTLYLQMNSLRAEDTAMYYCTRARTYGPAWFAYWGQGTLVTVSS
VL: DIVMTQSPDSLAVSLGERATINCKSSQSLLNSANQKNYLAWYQQKPGQPPKLLIYFASTRESGVPDRFSGSGSGTDFTLTISSLQAEDVAVYYCQSHYPFYYTFGGGTKVEIK
B4: He14/L1 (antibody, IgG4, V domains shown)
VH: EVQLLESGGGLVQPGGSLRLSCAASGFSFSDYYLYWVRQAPGKGLEWVATISVGGGQTSYADSVKGRFTISRDNSKNTLYLQMNSLRAEDTAMYYCTRGLYYGPSWVAYWGQGTLVTVSS
VL: DIVMTQSPDSLAVSLGERATINCKSSQSLLNSANQKNYLAWYQQKPGQPPKLLIYFASTRESGVPDRFSGSGSGTDFTLTISSLQAEDVAVYYCQSHYPFYYTFGGGTKVEIK
B5: He9/L4#2 (antibody, IgG4, V domains shown)
VH: EVQLLESGGGLVQPGGSLRLSCAASGFSFSDYYLYWVRQAPGKGLEWVATISVGGGQTSYADSVKGRFTISRDNSKNTLYLQMNSLRAEDTAMYYCARAMYYGPAWFAYWGQGTLVTVSS
VL: DIVMTQSPDSLAVSLGERATINCKSSQSLLNSANQKNYLAWYQQKPGQPPKLLIYFASTRESGVPDRFSGSGSGTDFTLTISSLQAEDVAVYYCQSHYPYPYTFGGGTKVEIK
B6: He13/L17 (antibody, IgG4, V domains shown)
VH: EVQLLESGGGLVQPGGSLRLSCAASGFSFSDYYLYWVRQAPGKGLEWVATISVGGGQTSYADSVKGRFTISRDNSKNTLYLQMNSLRAEDTAMYYCTRGLYYGPSWLAYWGQGTLVTVSS
VL: DIVMTQSPDSLAVSLGERATINCKSSQSLLNSANQKNYLAWYQQKPGQPPKLLIYFASTRESGVPDRFSGSGSGTDFTLTISSLQAEDVAVYYCQSHYPYPYTFGGGTKVEIK
B7: He4/L16 (antibody, IgG4, V domains shown)
VH: EVQLLESGGGLVQPGGSLRLSCAASGFSFSDYYLYWVRQAPGKGLEWVATISVGGGQTSYADSVKGRFTISRDNSKNTLYLQMNSLRAEDTAMYYCTRALYYGPAWFAYWGQGTLVTVSS
VL: DIVMTQSPDSLAVSLGERATINCKSSQSLLNSANQKNYLAWYQQKPGQPPKLLIYFASTRESGVPDRFSGSGSGTDFTLTISSLQAEDVAVYYCQSHYPYPFTFGGGTKVEIK
B8: He9/L3 (antibody, IgG4, V domains shown)
VH: EVQLLESGGGLVQPGGSLRLSCAASGFSFSDYYLYWVRQAPGKGLEWVATISVGGGQTSYADSVKGRFTISRDNSKNTLYLQMNSLRAEDTAMYYCARAMYYGPAWFAYWGQGTLVTVSS
VL: DIVMTQSPDSLAVSLGERATINCKSSQSLLNSANQKNYLAWYQQKPGQPPKLLIYFASTRESGVPDRFSGSGSGTDFTLTISSLQAEDVAVYYCQSHFPFPFTFGGGTKVEIK
B9: He9/L6 (antibody, IgG4, V domains shown)
VH: EVQLLESGGGLVQPGGSLRLSCAASGFSFSDYYLYWVRQAPGKGLEWVATISVGGGQTSYADSVKGRFTISRDNSKNTLYLQMNSLRAEDTAMYYCARAMYYGPAWFAYWGQGTLVTVSS
VL: DIVMTQSPDSLAVSLGERATINCKSSQSLLNSANQKNYLAWYQQKPGQPPKLLIYFASTRESGVPDRFSGSGSGTDFTLTISSLQAEDVAVYYCQSHYPFSFTFGGGTKVEIK
B10: He9/L17 (antibody, IgG4, V domains shown)
VH: EVQLLESGGGLVQPGGSLRLSCAASGFSFSDYYLYWVRQAPGKGLEWVATISVGGGQTSYADSVKGRFTISRDNSKNTLYLQMNSLRAEDTAMYYCARAMYYGPAWFAYWGQGTLVTVSS
VL: DIVMTQSPDSLAVSLGERATINCKSSQSLLNSANQKNYLAWYQQKPGQPPKLLIYFASTRESGVPDRFSGSGSGTDFTLTISSLQAEDVAVYYCQSHYPYPYTFGGGTKVEIK
B11: He17/L16 (antibody, IgG4, V domains shown)
VH: EVQLLESGGGLVQPGGSLRLSCAASGFSFSDYYLYWVRQAPGKGLEWVATISVGGGQTSYADSVKGRFTISRDNSKNTLYLQMNSLRAEDTAMYYCTRARTYGPAWFAYWGQGTLVTVSS
VL: DIVMTQSPDSLAVSLGERATINCKSSQSLLNSANQKNYLAWYQQKPGQPPKLLIYFASTRESGVPDRFSGSGSGTDFTLTISSLQAEDVAVYYCQSHYPYPFTFGGGTKVEIK
B12: Parent VH/L4#2 (antibody, IgG4, V domains shown)
VH: EVQLLESGGGLVQPGGSLRLSCAASGFSFSDYYLYWVRQAPGKGLEWVATISVGGGQTSYADSVKGRFTISRDNSKNTLYLQMNSLRAEDTAMYYCTRGLYYGPAWFAYWGQGTLVTVSS
VL: DIVMTQSPDSLAVSLGERATINCKSSQSLLNSANQKNYLAWYQQKPGQPPKLLIYFASTRESGVPDRFSGSGSGTDFTLTISSLQAEDVAVYYCQSHYPYPYTFGGGTKVEIK
B13: Parent VH/L18 (antibody, IgG4, V domains shown)
VH: EVQLLESGGGLVQPGGSLRLSCAASGFSFSDYYLYWVRQAPGKGLEWVATISVGGGQTSYADSVKGRFTISRDNSKNTLYLQMNSLRAEDTAMYYCTRGLYYGPAWFAYWGQGTLVTVSS
VL: DIVMTQSPDSLAVSLGERATINCKSSQSLLNSANQKNYLAWYQQKPGQPPKLLIYFASTRESGVPDRFSGSGSGTDFTLTISSLQAEDVAVYYCQSHFPYPFTFGGGTKVEIK
B14: He14/L1 Fab (Fab, V domains shown)
VH: EVQLLESGGGLVQPGGSLRLSCAASGFSFSDYYLYWVRQAPGKGLEWVATISVGGGQTSYADSVKGRFTISRDNSKNTLYLQMNSLRAEDTAMYYCTRGLYYGPSWVAYWGQGTLVTVSS
VL: DIVMTQSPDSLAVSLGERATINCKSSQSLLNSANQKNYLAWYQQKPGQPPKLLIYFASTRESGVPDRFSGSGSGTDFTLTISSLQAEDVAVYYCQSHYPFYYTFGGGTKVEIK

Tests used:
[1] = target: CEACAM1 on transfected HeLa cells (Homo sapiens (Human)) (UniProt P13688); assay: flow cytometry, transfected HeLa
[2] = target: human GST-CEACAM1 (human) (UniProt P13688); assay: blocking ELISA: plate-coated human TIM-3 IgV domain (3 µg/mL), hCEACAM1-GST (4 µM) added with antibody at 0-250 nM; bound CEACAM1-GST detected with anti-GST antibody, OD 450 nm; blocked ligand: TIM-3
[3] = target: CEACAM3 (Sino Biological) (human) (UniProt P40198); assay: binding ELISA on plate-coated CEACAM (0.5 µg/mL); antibody at 1.67, 0.062 and 0.0069 µg/mL; signal as % of parent IgG on CEACAM1 at 1.67 µg/mL on the same plate
[4] = target: CEACAM3 (Sino Biological) (human) (UniProt P40198); assay: SPR single-cycle, IgG on Protein A
[5] = target: CEACAM1 (Sino Biological) (human) (UniProt P13688); assay: SPR single-cycle
[6] = target: tagless CEACAM1 expressed in E. coli (crystal structure, PDB 7N3W) (human) (UniProt P13688); assay: co-crystal structure

| Binder | binding [1] | also measured |
| --- | --- | --- |
| B1 | binds | binding [2]: binds |
| B2 | binds | binding [2]: binds |
| B3 | binds | binding [2]: binds |
| B4 | binds | binding [2]: binds |
| B5 | binds | binding [3]: no binding (tested: 1.67 µg/mL); binding [4]: no binding (tested: 25 nM to 200 nM) |
| B6 | – | binding [5]: binds |
| B7 | binds | – |
| B8 | binds | – |
| B9 | binds | – |
| B10 | binds | – |
| B11 | binds | – |
| B12 | binds | – |
| B13 | binds | – |
| B14 | – | binding [6]: binds |
